# Percent effect of library compounds

The chains behind the UniProt entries cited, without tags or fusion partners. Residues count along the entry.
UniProt P9WPC5, whole entry: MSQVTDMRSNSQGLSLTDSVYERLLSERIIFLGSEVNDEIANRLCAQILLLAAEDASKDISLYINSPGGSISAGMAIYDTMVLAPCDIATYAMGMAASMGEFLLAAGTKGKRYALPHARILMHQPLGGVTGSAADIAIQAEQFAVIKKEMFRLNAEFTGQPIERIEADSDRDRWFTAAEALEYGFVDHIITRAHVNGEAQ
UniProt P9WPC3, whole entry partner: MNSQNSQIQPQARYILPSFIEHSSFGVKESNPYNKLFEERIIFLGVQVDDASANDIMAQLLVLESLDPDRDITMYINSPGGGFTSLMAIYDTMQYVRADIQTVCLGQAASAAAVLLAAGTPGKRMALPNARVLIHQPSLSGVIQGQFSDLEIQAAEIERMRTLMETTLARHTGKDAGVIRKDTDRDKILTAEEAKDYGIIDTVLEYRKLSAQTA
UniProt I6X8D2, whole entry: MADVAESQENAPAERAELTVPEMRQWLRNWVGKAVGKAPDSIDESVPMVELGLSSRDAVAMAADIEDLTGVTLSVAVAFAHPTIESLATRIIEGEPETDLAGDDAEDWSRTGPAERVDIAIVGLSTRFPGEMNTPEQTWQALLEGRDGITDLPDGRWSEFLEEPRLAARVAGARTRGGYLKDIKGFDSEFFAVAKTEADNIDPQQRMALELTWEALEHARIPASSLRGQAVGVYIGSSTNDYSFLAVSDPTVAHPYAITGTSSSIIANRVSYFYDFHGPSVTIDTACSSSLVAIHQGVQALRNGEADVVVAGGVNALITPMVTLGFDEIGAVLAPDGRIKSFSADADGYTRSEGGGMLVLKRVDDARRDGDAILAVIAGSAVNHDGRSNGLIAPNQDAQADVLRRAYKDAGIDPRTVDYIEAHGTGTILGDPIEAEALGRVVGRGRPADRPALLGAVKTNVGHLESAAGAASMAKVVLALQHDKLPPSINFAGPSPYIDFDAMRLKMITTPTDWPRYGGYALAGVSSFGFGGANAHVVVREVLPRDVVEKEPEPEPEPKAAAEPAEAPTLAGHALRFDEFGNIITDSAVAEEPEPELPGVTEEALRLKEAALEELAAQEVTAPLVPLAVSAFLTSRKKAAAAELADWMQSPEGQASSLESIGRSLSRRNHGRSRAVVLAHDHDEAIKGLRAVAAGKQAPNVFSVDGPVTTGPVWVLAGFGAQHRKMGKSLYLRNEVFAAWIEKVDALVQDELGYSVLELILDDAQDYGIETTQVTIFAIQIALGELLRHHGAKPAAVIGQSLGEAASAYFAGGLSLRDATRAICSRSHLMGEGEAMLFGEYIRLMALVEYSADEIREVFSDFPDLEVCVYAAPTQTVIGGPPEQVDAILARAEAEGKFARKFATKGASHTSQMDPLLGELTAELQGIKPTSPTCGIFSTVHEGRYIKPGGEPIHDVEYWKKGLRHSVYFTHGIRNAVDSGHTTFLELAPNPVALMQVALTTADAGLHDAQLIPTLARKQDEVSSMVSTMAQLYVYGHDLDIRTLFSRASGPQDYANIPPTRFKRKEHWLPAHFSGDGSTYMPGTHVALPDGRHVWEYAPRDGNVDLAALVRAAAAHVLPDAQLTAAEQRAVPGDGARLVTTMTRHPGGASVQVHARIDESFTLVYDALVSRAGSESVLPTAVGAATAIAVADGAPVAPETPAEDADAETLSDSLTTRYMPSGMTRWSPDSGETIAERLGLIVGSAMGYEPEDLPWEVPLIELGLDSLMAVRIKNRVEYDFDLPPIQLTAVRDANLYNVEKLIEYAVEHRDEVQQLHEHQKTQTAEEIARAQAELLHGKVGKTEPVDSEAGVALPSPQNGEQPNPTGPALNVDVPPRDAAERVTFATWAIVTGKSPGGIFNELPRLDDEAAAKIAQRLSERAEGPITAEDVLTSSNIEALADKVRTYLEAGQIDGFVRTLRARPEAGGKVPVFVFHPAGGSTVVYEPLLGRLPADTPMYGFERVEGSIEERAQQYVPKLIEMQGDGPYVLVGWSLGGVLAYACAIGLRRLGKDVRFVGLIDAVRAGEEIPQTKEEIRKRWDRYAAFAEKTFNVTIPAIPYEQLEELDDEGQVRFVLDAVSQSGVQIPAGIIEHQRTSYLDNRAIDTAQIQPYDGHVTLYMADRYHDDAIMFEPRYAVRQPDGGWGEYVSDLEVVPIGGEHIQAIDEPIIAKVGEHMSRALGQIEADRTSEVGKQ
UniProt P9WNZ1, whole entry: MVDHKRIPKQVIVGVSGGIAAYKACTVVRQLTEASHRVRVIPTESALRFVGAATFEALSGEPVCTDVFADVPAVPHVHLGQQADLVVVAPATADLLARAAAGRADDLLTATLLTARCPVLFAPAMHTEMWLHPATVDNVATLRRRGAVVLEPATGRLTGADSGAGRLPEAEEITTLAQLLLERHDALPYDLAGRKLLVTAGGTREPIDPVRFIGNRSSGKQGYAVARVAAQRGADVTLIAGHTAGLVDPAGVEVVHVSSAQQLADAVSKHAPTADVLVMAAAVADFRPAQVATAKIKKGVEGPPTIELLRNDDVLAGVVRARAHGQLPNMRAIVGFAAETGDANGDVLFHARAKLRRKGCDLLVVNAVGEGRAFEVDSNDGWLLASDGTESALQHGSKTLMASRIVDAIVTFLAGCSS
UniProt A4I591, 1-473: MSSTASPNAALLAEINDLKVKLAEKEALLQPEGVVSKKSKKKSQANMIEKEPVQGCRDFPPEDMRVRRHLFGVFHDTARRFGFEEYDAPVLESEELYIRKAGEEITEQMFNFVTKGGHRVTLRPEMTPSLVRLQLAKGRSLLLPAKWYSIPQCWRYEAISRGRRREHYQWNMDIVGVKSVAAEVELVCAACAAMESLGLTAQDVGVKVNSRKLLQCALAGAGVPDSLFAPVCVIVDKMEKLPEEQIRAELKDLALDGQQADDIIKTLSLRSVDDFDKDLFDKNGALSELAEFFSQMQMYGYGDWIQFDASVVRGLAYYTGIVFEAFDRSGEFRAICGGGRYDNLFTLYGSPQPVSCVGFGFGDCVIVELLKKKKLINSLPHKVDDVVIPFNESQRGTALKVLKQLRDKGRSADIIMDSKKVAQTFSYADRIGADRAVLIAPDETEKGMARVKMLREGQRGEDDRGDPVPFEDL
UniProt Q4DA54, 1-478: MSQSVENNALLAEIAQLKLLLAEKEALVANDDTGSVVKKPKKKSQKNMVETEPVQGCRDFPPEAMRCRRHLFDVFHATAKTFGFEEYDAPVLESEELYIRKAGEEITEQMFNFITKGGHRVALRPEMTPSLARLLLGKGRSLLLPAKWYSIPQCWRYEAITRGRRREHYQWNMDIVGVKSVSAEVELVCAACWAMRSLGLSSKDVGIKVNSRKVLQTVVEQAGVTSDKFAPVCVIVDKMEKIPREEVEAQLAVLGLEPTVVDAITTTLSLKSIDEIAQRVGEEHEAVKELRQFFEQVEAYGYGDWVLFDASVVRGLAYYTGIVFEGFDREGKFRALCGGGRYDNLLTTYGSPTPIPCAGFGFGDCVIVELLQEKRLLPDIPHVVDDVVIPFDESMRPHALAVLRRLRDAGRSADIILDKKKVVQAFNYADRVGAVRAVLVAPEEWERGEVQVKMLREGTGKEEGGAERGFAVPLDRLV

Data taken from ChEMBL document CHEMBL3988442, “University of Dundee, Small-Polar-MMV Screening Library” (2021).

Each number is a percent effect as filed.
The controls that fix the scale are not given in the record; negative values are as filed.
The compounds are a random part of those screened.

ClpP1P2: 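ClpP1P2, Mycobacterium tuberculosis (UniProt P9WPC5 and UniProt P9WPC3). Protease assay of ClpP1P2, read by the AMC dye that it sets free. Tested at 50 µM. Higher reads as stronger inhibition, judged from the few compounds that gave an IC50. Most other retested compounds had strongly negative values. Size under these conditions: about 69,000 compounds, about 10 of them at 50% or above in at least one test.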
Pks13 thioesterase: 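Polyketide synthase Pks13, Mycobacterium tuberculosis (UniProt I6X8D2). Enzyme assay of the thioesterase domain of polyketide synthase 13; the read-out is not stated. Compounds at 30 µM. Higher reads as stronger inhibition (inferred from which compounds were picked for retests). Of about 67,000 compounds tested this way, about 300 (0.46%) reached 50% or more in at least one test.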
CoaBC: 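Coenzyme A biosynthesis protein CoaBC, Mycobacterium tuberculosis (UniProt P9WNZ1). Enzyme assay of CoaBC with a phosphate dye (Biomol Green) read at 650 nm. Concentration: 30 µM. Direction is inferred from only a few compounds that gave an IC50; most scored high, so higher reads as stronger inhibition. Most strong results did not repeat in a second test. Size under these conditions: about 67,000 compounds, about 40 of them at 50% or above in at least one test.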
LiHisRS: 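Histidine-tRNA ligase, Leishmania infantum (UniProt A4I591). Enzyme assay of histidyl-tRNA synthetase; the read-out is not stated. Compounds at 30 µM. The record gives no direction; compounds that gave an IC50 in retests scored well above the rest, so higher reads as stronger inhibition. The assay is labelled LdHisRS but filed under L. infantum. Of about 69,000 compounds tested this way, about 410 (0.6%) reached 50% or more in at least one test.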
TcHisRS: 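Enzyme assay of histidyl-tRNA synthetase; the read-out is not stated. Target: Histidine-tRNA ligase, Trypanosoma cruzi CL Brener (UniProt Q4DA54). Concentration: 30 µM. Higher reads as stronger inhibition (inferred: compounds with an IC50 in retests scored well above the rest). Size under these conditions: about 69,000 compounds, about 31 of them at 50% or above in at least one test.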

CCN1CC(C(=O)NCCn2cccc2)CCC1=O (centres unmarked) gave ClpP1P2: -12.87%; Pks13 thioesterase: -25.39%; CoaBC: 2.343%; LiHisRS: 14.52%; TcHisRS: -1.754%.
OCCN(Cc1ccno1)Cc1cc(Br)ccc1F gave ClpP1P2: -9.149%; Pks13 thioesterase: -12.79%; CoaBC: 3.682%; LiHisRS: 0%; TcHisRS: 1.042%.
CC(=O)Nc1ccc(C(=O)N(C)C(C)Cc2cc(C)ccn2)cn1 (centres unmarked) gave ClpP1P2: -9.059%; Pks13 thioesterase: -20.03%; CoaBC: -0.7426%; LiHisRS: 2%; TcHisRS: 2.41%.
Cc1cncc(C2CCN(Cc3ccncc3)CC2)n1 gave ClpP1P2: -15.78%; Pks13 thioesterase: -5.885%; CoaBC: -1.937%; LiHisRS: 12.59%; TcHisRS: 3.39%.
c1cc(CN2C[C@@H]3OCCN(CCN4CCCC4)[C@@H]3C2)co1 gave ClpP1P2: 9.049%; CoaBC: -15.45%; LiHisRS: 14.29%; TcHisRS: 6.863%.
COC1CCN(c2ccc(F)cc2CN(C)CC(N)=O)CC1 gave ClpP1P2: -6.959%; Pks13 thioesterase: -27.24%; CoaBC: -2.45%; LiHisRS: 10%; TcHisRS: 4.348%.
COc1ccc(C2CC(=O)Nc3c2cnn3C)cc1 (centres unmarked) gave ClpP1P2: 2.677%; Pks13 thioesterase: 4.48%; CoaBC: -1.754%; LiHisRS: 1.905%; TcHisRS: 4.959%.
COCCN(C)CCN1CC2(CCN(C3CCOC3)CC2)OC1=O (centres unmarked) gave ClpP1P2: -18.6%; Pks13 thioesterase: -20.99%; CoaBC: 3.498%; LiHisRS: 13.6%; TcHisRS: 0.5025%.
Cc1nc(C)n(CC2CCCN(Cc3nnc(C(C)(C)C)o3)C2)n1 (centres unmarked) gave ClpP1P2: 0.9031%; Pks13 thioesterase: -25.24%; CoaBC: -0.135%; LiHisRS: 8.571%; TcHisRS: 4.348%.
O=C(NCCCN1CCCC1=O)c1nc(-c2ccc3[nH]ccc3c2)no1 gave ClpP1P2: 2.345%; Pks13 thioesterase: -40.65%; CoaBC: 2.273%; LiHisRS: 15.79%; TcHisRS: 1.754%.
O=C(c1ccncn1)N1CCO[C@H]2[C@@H](OCc3cccnc3)CC[C@@H]21 gave ClpP1P2: 1.763%; Pks13 thioesterase: -8.267%; CoaBC: -0.6345%; LiHisRS: 15.09%; TcHisRS: -1.622%.
CN1CCCC(CCCc2cccnc2)(C(N)=O)C1 (centres unmarked) gave ClpP1P2: -4.938%; Pks13 thioesterase: -7.738%; CoaBC: 1.695%; LiHisRS: 14.43%; TcHisRS: 11.11%.
COc1c(F)cc(F)cc1-c1nc2c([nH]1)CCNC2 gave ClpP1P2: 10.46%; Pks13 thioesterase: 11.43%; CoaBC: -14.69%; LiHisRS: 10.26%; TcHisRS: 5.056%.
O=c1[nH][nH]cc1-c1ccnc(NCCN2CCCC2)n1 gave ClpP1P2: 14.78%; Pks13 thioesterase: -1.547%; CoaBC: 1.956%; LiHisRS: 4.054%; TcHisRS: 3.396%.
CCN(CC)CCSc1nnc(N2CCN(c3ccc(F)cc3)CC2)s1 gave ClpP1P2: -20.79%; Pks13 thioesterase: 8.211%; CoaBC: 1.38%; LiHisRS: 8.475%; TcHisRS: -1.463%.
O=C(C1CCC1)N1CCN(Cc2ccccc2F)[C@H]2CS(=O)(=O)C[C@H]21 gave ClpP1P2: 1.699%; Pks13 thioesterase: -27.6%; CoaBC: 0.1631%; LiHisRS: 23.29%; TcHisRS: 2.97%.
Cc1ccc(O)c(C(=O)N2CCCC(NC(=O)C(C)C)C2)c1 (centres unmarked) gave ClpP1P2: 4.847%; Pks13 thioesterase: -6.931%; CoaBC: 3.602%; LiHisRS: 17.54%; TcHisRS: 1.433%.
CCN(Cc1ccco1)C(=O)Nc1cc(C(F)(F)F)c[nH]c1=O gave ClpP1P2: 3.027%; Pks13 thioesterase: 0.6918%; CoaBC: 3.84%; LiHisRS: 7.576%; TcHisRS: 4.545%.

For reference, 2 entries once more:

SMILES	ClpP1P2	Pks13 thioesterase	CoaBC	LiHisRS	TcHisRS
CN1CCCC(CCCc2cccnc2)(C(N)=O)C1 (centres unmarked)	-4.938%	-7.738%	1.695%	14.43%	11.11%
O=c1[nH][nH]cc1-c1ccnc(NCCN2CCCC2)n1	14.78%	-1.547%	1.956%	4.054%	3.396%